{"source": "patent US20230390254A1", "about": "“PHARMACEUTICAL COMPOSITIONS OF UBROGEPANT AND PROCESS FOR PREPARATION THEREOF” (Aurobindo Pharma Ltd, priority 2022, published 2023)", "origin": "cited, not measured here", "note": "At least one read-out could not be matched to a standard name with certainty.", "data": [{"compound": "C[C@@H]1[C@H](c2ccccc2)C[C@H](NC(=O)c2cnc3c(c2)C[C@@]2(C3)C(=O)Nc3ncccc32)C(=O)N1CC(F)(F)F", "note": "[Ubrogepant, (3′S)—N-((3 S,5S,6R)-6-methyl-2-oxo-5-phenyl-1-(2,2,2trifluoroethyl)piperidin-3-yl)-2′-oxo-1′,2′,5,7 tetrahydrospiro[cyclopenta[b]pyridine-6,3′-pyrrolo[2,3b]pyridine]-3-carboxamide]", "values": [{"measurement": "permeability (BCS)", "value": "low permeability"}]}]}
